# Results from PubChem BioAssay AID662 (National Center for Advancing Translational Sciences (NCATS), 2007).
# The list shows a part of the results. These are further read-outs of the screen, such as a control signal, another cell line or another target. No call is given for them. The list favours compounds with an active or inconclusive main result. Words in brackets tell the shape of the fitted curve; partial curves, single points and poor fits give uncertain potencies.
# Assay: Cell signaling CRE-BLA (Fsk stim)
# Conditions: CHO CRE-bla reporter (cAMP response element driving beta-lactamase), forskolin EC10, beta-lactamase ratio; measured here: 460 nm blue channel
# Outline: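 Modulation of forskolin-driven signalling is measured in CHO cells carrying a CRE-controlled beta-lactamase reporter. Cells are stimulated with EC10 NKH 477 in the presence of titrated compound for 3 h at 37 °C, then loaded with CCF4 for 2 h at room temperature.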
row,Structure (SMILES),AC50
1,COC(=O)c1ccccc1NC(=O)N1c2ccccc2CC1C (stereo not drawn),"12.6 µM [rising, partial curve]"
2,COc1cc(CNC(=O)CCCC/C=C\C(C)C)ccc1O,"31.6 µM [falling, single point]"
3,CNCCC=C1c2ccccc2CCc2ccccc21,"12.6 µM [falling, single point]"
4,CCNc1nc(N)nc(Oc2ccc(OCCOc3ccc(Cl)cc3Cl)nn2)n1,"6.31 µM [rising, partial curve]"
5,O=C(CSC1=Nc2ccccc2C2=NC(CC(=O)NCc3ccco3)C(=O)N12)NCC1CCCO1 (stereo not drawn),"0.0794 µM [falling, full curve, poor fit]"
6,CSC1=C(C#N)C(c2cccc(Br)c2)CC(=O)N1 (stereo not drawn),"3.98 µM [falling, partial curve]"
7,O=C(Nc1cccc2nsnc12)c1cccs1,"10 µM [rising, partial curve]"
8,O=C(O)CC(C(=O)O)c1cn(Cc2ccccc2)c2ccccc12 (stereo not drawn),"3.98 µM [falling, partial curve]"
9,Cc1onc(-c2ccccc2Cl)c1C(=O)Nc1cccc2nsnc12,"20 µM [rising, partial curve]"
10,Cc1ccccc1-n1nc(C)c2cc(C(=O)N3CCN(S(=O)(=O)c4ccccc4)CC3)sc21,"10 µM [falling, partial curve]"
11,COc1cc(-c2nnc3sc(-c4ccncc4)nn23)cc(OC)c1OC,"2.51 µM [rising, full curve]"
12,O=C(CC1Nc2ccccc2NC1=O)NCC1COc2ccccc2O1 (stereo not drawn),"3.16 µM [falling, single point]"
13,Cc1csc(NC(=O)CCCSc2nc3ccccc3s2)n1,"3.98 µM [falling, partial curve]"
14,Cc1ccccc1CS(=O)(=O)c1nnc([C@H](CC(C)C)NC(=O)OC(C)(C)C)o1,"7.94 µM [falling, partial curve]"
15,CC(C)OC(=O)CSc1nc(N)c(C#N)c(-c2cccs2)c1C#N,"7.94 µM [rising, partial curve]"
16,N=c1c(S(=O)(=O)c2ccccc2)cc2c(=O)n3ccccc3nc2n1CCN1CCOCC1,"10 µM [rising, partial curve]"
17,COc1ccccc1CCn1c(=O)c(-c2ccccc2)nc2cncnc21,"10 µM [rising, partial curve]"
18,O=C(NCCc1ccc(Cl)cc1)C1CCN(S(=O)(=O)c2cccc3nonc23)CC1,"0.251 µM [falling, partial curve]"
19,COc1ccc(C(=O)Nc2ccc(-c3ccc(C)o3)cc2)cc1S(=O)(=O)N1CCOCC1,"10 µM [falling, partial curve]"
20,C=CCc1cccc2cc(C(=O)NC)c(=O)oc12,"25.1 µM [rising, single point]"
21,O=c1nc(C(F)(F)F)nc2ccccn12,"25.1 µM [rising, single point]"
22,CCn1cnc2sc(C(=O)N(Cc3ccc(N(C)C)cc3)Cc3ccco3)c(C)c2c1=O,"5.01 µM [rising, full curve, poor fit]"
23,Cc1ccc(-n2nnnc2SCC(=O)NC(=O)Nc2ccc3c(c2)OCCO3)cc1,"5.01 µM [falling, single point]"

# Laid out differently: results already given
row	Structure (SMILES)	AC50
3	CNCCC=C1c2ccccc2CCc2ccccc21	12.6 µM [falling, single point]
4	CCNc1nc(N)nc(Oc2ccc(OCCOc3ccc(Cl)cc3Cl)nn2)n1	6.31 µM [rising, partial curve]
5	O=C(CSC1=Nc2ccccc2C2=NC(CC(=O)NCc3ccco3)C(=O)N12)NCC1CCCO1 (stereo not drawn)	0.0794 µM [falling, full curve, poor fit]
6	CSC1=C(C#N)C(c2cccc(Br)c2)CC(=O)N1 (stereo not drawn)	3.98 µM [falling, partial curve]
7	O=C(Nc1cccc2nsnc12)c1cccs1	10 µM [rising, partial curve]
8	O=C(O)CC(C(=O)O)c1cn(Cc2ccccc2)c2ccccc12 (stereo not drawn)	3.98 µM [falling, partial curve]
9	Cc1onc(-c2ccccc2Cl)c1C(=O)Nc1cccc2nsnc12	20 µM [rising, partial curve]
10	Cc1ccccc1-n1nc(C)c2cc(C(=O)N3CCN(S(=O)(=O)c4ccccc4)CC3)sc21	10 µM [falling, partial curve]
11	COc1cc(-c2nnc3sc(-c4ccncc4)nn23)cc(OC)c1OC	2.51 µM [rising, full curve]
12	O=C(CC1Nc2ccccc2NC1=O)NCC1COc2ccccc2O1 (stereo not drawn)	3.16 µM [falling, single point]
13	Cc1csc(NC(=O)CCCSc2nc3ccccc3s2)n1	3.98 µM [falling, partial curve]
14	Cc1ccccc1CS(=O)(=O)c1nnc([C@H](CC(C)C)NC(=O)OC(C)(C)C)o1	7.94 µM [falling, partial curve]
15	CC(C)OC(=O)CSc1nc(N)c(C#N)c(-c2cccs2)c1C#N	7.94 µM [rising, partial curve]
16	N=c1c(S(=O)(=O)c2ccccc2)cc2c(=O)n3ccccc3nc2n1CCN1CCOCC1	10 µM [rising, partial curve]

# (more compounds)

row,Structure (SMILES),AC50
1,O=C(COC(=O)c1ccc(S(=O)(=O)N2CCCC2)cc1)NCc1ccccc1,"5.01 µM [rising, single point]"
2,COc1ccc(CCNC(=O)c2cc(-c3cccs3)on2)cc1OC,"1 µM [rising, single point]"
3,C=CCn1c(SCc2ccc(Cl)cc2)nc2c1c(=O)[nH]c(=O)n2C,"10 µM [rising, partial curve]"
4,CCOc1cc(C(=O)Nc2ncccn2)cc(OCC)c1OCC,"0.00398 µM [falling, full curve, poor fit]"
5,CN(C)C(=O)c1ccc(-c2ccc3ncnc(NCc4ccccc4)c3c2)cc1,"7.94 µM [rising, partial curve]"
6,CCOC(=O)c1ccccc1NC(=O)Cn1cnc2c(oc3ccccc32)c1=O,"3.16 µM [rising, full curve, poor fit]"
7,CC12CCC(=O)N1C(C(=O)OCC(=O)Nc1sccc1C#N)CS2 (stereo not drawn),"3.98 µM [falling, single point]"
8,COC(=O)c1c(NC(=O)CCCC(=O)O)sc(C)c1C,"10 µM [rising, partial curve]"
9,CCN(CC)CCN1C(=O)C(O)=C(C(=O)c2ccc(C)o2)C1c1ccccn1 (stereo not drawn),"1.26 µM [rising, partial curve]"
10,CCCc1nc(SC2CCCC2)c2c(=O)n(C)c(=O)n(C)c2n1,"2 µM [rising, full curve]"
11,Fc1cnc(N2CCOCC2)nc1N1CCc2ccccc21,"12.6 µM [rising, single point]"
12,C=CCn1c(SCC(=O)c2ccc(O)c(O)c2)nnc1-c1ccccc1OC,"0.316 µM [falling, full curve]"
13,Clc1ccc(Cl)c(Nc2ccnc(SCc3ccccc3)n2)c1,"3.16 µM [rising, single point]"
14,CCn1c(SC/C=C/c2ccccc2)nnc1-c1cccs1,"0.316 µM [falling, full curve, poor fit]"
15,CN(C)C(=O)c1ccc(-c2cncnc2NC2CCNCC2)cc1,"12.6 µM [rising, partial curve, poor fit]"
16,CC(C)C(=O)N1CCC(CN=Cc2c(O)n(C3CCCCC3)c(=O)n(C3CCCCC3)c2=O)CC1,"25.1 µM [falling, single point]"
17,CCCCCCCCCCCCCCCCCC(=O)O[C@H](CC(=O)O)C[N+](C)(C)C,"12.6 µM [falling, single point]"
18,CCOC(=O)C1CCCN(C(=O)c2cncc(Br)c2)C1 (stereo not drawn),"2 µM [falling, partial curve]"
19,Cc1noc(C)c1-c1nccc(N2CCOCC2)n1,"5.01 µM [rising, full curve]"
20,Cc1cc(N2CCOCC2)c2c(N)c(Br)cc(C)c2n1,"0.398 µM [rising, partial curve]"
21,CC1CN(c2ccccc2)C(=O)CS1 (stereo not drawn),"15.8 µM [falling, single point]"
22,Cc1cc2cc(CCNC(=O)c3c(-c4ccccc4Cl)noc3C)c(=O)[nH]c2cc1C,"12.6 µM [rising, single point]"
23,Nc1c(C(=O)OCC2CCCO2)c2nc3ccccc3nc2n1C1CCCCC1 (stereo not drawn),"10 µM [rising, partial curve]"

row,Structure (SMILES),AC50
1,COc1ccc(-c2nc(C#N)c(NC(C)C)o2)cc1,"10 µM [rising, partial curve, poor fit]"
2,Cc1ccc(S(=O)(=O)Nc2cccc3ncccc23)s1,"12.6 µM [rising, single point]"
3,N#Cc1nc(-c2ccc(Cl)cc2)oc1NCc1ccco1,"12.6 µM [rising, partial curve]"
4,COc1cc(OC)c(/C=C2/C(=O)Nc3ccccc32)c(OC)c1,"12.6 µM [rising, partial curve]"
5,Cn1c2ccccc2c2c(C(=O)N3CCN(c4ccccn4)CC3)cn(C3CCCC3)c(=O)c21,"10 µM [rising, partial curve, poor fit]"
6,OCCNc1nc(-c2cccnc2)nc2ccccc12,"3.16 µM [rising, full curve]"
7,Cc1ccccc1-n1c(=O)cc(NCc2ccc3c(c2)OCO3)[nH]c1=O,"0.0158 µM [falling, full curve, poor fit]"
8,CCn1ncc(Br)c1C(=O)N(C)C12CC3CC(CC(C3)C1)C2,"7.94 µM [rising, single point]"
9,COc1ccc2c(c1)CCc1c(C(=O)Nc3c(C)n(C)n(-c4ccccc4)c3=O)noc1-2,"3.98 µM [rising, partial curve]"
10,CN(Cc1ccco1)c1ncnc2ccc(-c3cccc(NS(C)(=O)=O)c3)cc12,"2 µM [rising, full curve]"
11,O=c1c(CCc2ccccc2)nc2cnc(Nc3ccccc3)nc2n1C[C@H]1CCCO1,"7.94 µM [rising, partial curve]"
12,Cn1cc(C2=C(c3ccc(Cl)cc3Cl)C(=O)NC2=O)c2ccccc21,"3.98 µM [falling, partial curve]"
13,COc1cc2c(C(=O)NCc3ccc(C)o3)cn(CC(C)C)c(=O)c2cc1OC,"3.16 µM [rising, full curve]"
14,COCCNS(=O)(=O)c1cc(-c2nn(C)c(=O)c3ccccc23)ccc1C,"10 µM [rising, partial curve]"
15,COCCn1c(=O)c(-c2cc(F)cc(F)c2)nc2cnc(Oc3cccc(Cl)c3)nc21,"10 µM [rising, partial curve]"
16,O=C(c1ccccc1)c1cccn1CC(=O)N1CCCCCC1,"31.6 µM [falling, partial curve, poor fit]"
17,COc1ccc(-c2noc(CCCc3ccccc3)n2)cc1OC,"5.01 µM [rising, partial curve]"
18,Cc1cccn2c(=O)c3cc(C(=O)NCc4ccco4)c(=N)n(CCc4ccccc4)c3nc12,"20 µM [rising, single point]"
19,O=C(CN1CCN(c2ccccc2)CC1)Nc1c(C(=O)C2CC2)oc2ccccc12,"0.0126 µM [rising, full curve]"
20,COc1ccc(-c2nc3cnc(OC)nc3n(-c3ccccc3)c2=O)cc1,"3.16 µM [rising, full curve]"
21,Cn1c(-c2c(N)n(C3CCCC3)c3nc4ccccc4nc23)nc2ccccc21,"5.01 µM [rising, partial curve]"
22,CCCC1(c2ccccc2)NC(=O)N(CC(=O)c2[nH]c(C)c(C(=O)OCC)c2C)C1=O (stereo not drawn),"7.94 µM [rising, partial curve]"
